# Experimental data reported in PMC7021698.
# Protein sequences, listed by entry. Tags and fused reporters are not part of them.
# UniProt Q9C0D2: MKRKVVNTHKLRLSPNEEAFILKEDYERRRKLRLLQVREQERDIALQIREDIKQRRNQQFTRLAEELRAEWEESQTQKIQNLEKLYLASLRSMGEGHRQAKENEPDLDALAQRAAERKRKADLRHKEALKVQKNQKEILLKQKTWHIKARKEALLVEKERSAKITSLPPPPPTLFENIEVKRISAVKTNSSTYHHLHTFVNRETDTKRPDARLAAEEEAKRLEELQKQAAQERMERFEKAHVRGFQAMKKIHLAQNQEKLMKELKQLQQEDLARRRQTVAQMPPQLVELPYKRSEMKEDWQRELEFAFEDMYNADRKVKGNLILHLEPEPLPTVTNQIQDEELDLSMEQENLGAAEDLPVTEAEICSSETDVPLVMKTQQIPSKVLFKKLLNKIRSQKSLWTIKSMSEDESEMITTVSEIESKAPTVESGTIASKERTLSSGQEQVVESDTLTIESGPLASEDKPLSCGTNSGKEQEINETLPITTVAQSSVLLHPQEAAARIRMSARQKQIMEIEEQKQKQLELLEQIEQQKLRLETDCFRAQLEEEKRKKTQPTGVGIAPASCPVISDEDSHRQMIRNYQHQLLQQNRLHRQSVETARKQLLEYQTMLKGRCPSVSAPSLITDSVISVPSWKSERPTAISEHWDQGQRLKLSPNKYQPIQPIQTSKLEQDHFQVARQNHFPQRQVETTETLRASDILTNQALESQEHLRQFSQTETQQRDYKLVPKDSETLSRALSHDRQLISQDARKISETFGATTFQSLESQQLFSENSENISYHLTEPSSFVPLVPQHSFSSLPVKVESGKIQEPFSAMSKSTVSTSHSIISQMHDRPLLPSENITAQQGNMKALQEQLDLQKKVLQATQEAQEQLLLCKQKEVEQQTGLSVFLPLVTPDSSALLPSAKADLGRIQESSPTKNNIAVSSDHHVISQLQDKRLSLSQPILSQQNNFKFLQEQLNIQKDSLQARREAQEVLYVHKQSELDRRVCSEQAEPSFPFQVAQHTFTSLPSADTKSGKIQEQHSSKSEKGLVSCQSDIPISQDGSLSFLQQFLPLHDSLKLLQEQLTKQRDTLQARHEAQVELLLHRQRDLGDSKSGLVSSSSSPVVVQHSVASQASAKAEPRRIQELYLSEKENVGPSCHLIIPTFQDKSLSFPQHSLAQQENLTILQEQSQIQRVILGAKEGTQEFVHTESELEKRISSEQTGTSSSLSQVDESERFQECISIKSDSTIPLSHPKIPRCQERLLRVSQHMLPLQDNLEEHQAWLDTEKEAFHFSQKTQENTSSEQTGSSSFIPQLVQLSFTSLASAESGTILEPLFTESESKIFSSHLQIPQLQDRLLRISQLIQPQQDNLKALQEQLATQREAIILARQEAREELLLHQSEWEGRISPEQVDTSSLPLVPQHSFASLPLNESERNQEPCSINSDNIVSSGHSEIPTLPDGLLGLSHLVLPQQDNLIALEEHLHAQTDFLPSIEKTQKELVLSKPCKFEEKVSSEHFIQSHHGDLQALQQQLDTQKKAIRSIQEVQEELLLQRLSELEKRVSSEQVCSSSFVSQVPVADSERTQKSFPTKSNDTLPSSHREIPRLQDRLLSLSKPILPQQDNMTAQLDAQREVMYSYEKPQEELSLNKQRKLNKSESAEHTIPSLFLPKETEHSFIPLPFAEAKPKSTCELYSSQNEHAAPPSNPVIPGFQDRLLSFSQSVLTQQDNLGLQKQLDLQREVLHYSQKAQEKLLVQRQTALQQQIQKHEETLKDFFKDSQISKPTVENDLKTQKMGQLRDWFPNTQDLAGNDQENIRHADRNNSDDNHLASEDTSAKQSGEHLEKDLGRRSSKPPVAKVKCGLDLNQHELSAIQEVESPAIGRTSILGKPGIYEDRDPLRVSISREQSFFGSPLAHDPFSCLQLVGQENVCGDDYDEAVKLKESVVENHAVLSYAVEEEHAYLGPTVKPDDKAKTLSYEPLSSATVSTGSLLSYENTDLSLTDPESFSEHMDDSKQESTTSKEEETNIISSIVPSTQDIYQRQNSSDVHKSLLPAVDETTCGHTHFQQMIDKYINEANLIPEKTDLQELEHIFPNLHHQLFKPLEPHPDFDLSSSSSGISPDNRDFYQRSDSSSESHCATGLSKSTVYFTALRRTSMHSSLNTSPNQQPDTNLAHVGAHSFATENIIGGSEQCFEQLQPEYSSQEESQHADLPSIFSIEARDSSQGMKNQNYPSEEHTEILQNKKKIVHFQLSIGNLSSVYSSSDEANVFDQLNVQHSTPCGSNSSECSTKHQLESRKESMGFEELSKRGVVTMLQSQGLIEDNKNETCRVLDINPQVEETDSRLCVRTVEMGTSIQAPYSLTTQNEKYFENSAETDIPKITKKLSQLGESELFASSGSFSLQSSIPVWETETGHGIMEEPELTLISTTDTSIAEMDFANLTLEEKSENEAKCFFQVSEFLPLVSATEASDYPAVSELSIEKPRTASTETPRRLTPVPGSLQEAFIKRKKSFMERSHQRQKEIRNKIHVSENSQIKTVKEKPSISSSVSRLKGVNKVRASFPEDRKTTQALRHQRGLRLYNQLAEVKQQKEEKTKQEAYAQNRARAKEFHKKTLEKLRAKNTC
# No constants are given. Whether binding was seen depends on the method and setting. Binding seen in cells or lysates may run through a third protein. A yes stands for co-enrichment or nearness to the bait. Other partners may have been found. No binding means not detected with the bait. Tags and fused reporters may be left off the sequences shown.
# Target: T1, CEP44-Flag (siRNA-resistant CEP44 cDNA, tetracycline-inducible, in RPE1 cells) (human) (UniProt Q9C0F1)
# T1 sequence: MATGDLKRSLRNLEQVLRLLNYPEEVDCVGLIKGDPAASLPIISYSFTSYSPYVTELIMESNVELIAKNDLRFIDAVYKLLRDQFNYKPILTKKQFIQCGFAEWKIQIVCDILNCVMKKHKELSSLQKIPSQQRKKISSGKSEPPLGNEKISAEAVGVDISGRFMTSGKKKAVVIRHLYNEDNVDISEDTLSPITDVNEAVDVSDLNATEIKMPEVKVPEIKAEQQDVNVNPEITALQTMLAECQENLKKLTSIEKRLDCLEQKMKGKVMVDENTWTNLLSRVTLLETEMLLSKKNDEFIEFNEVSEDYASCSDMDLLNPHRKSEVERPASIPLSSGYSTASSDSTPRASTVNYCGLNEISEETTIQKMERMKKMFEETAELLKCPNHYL
# Experiment: affinity purification with mass spectrometry; Anti-FLAG M2 beads; lysate of 30 x 10^6 RPE1 cells expressing CEP44-Flag (doxycycline); lysis in 150 mM NaCl, 10 mM Tris-Cl, 0.5 mM EDTA, 0.5% NP-40, Benzonase, pH 7.5; eluted with 3X FLAG peptide; control: RPE1 Tet-on wild type cells; n = 1
substance,measurement,value
"CEP295 (endogenous, RPE1 cells) (from UniProt Q9C0D2 1-2601)",binding,no binding
